Data as given in PubChem BioAssay AID504784 (Drosophila RNAi Screening Center, 2011)
Aim: 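Search for regulators of lipid droplet storage in oleate-fed fly cells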 (primary screen). System: Drosophila Kc167 embryonic cells. Knock-down reagent: long dsRNA against Drosophila genes, about 250 ng dsRNA per well. Time to read-out: 4 days. Challenge: cells fed 400 µM oleic acid bound to BSA. Measured: 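Microscope images give a droplet-to-nucleus area ratio, taken as log and converted to a screen-wide B-score; higher values mean greater lipid storage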. Scale: droplet/nuclear area B-score: higher = more stored lipid (overstorage).
The deposit covers about 17,000 reagents; shown is a random part of those that have a named target and a result. 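Each column is one replicate's B-score; the combined score over replicates was not deposited, so single values may mislead.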 Reagents against one gene are numbered here. A plus sign joins genes that one reagent is predicted to hit. Further read-outs or replicates are left out here. No sequences are given here.

"droplet/nuclear area B-score, replicate 1","droplet/nuclear area B-score, replicate 2",Gene,dsRNA no.
2.96,5.89,Hsp70Aa + Hsp70Bb + Hsp70Ba + 3 more,1
1.85,0.363,CG17376,1
0.94,0.223,CG8329,1
0.177,-0.519,bab1 (bric a brac 1),1
1.02,-1.11,bab1 (bric a brac 1),2
8.54,0.0998,bab1 (bric a brac 1),3
-0.272,-1.23,PICK1 (Protein interacting with C kinase 1),1
-1.9,-0.0241,atlas,1
-1.86,0.577,smal (smoke alarm),1
0.319,1.53,smal (smoke alarm),2
-0.464,-0.818,smal (smoke alarm),3
1,3.77,smal (smoke alarm),4
-2.51,-0.516,smal (smoke alarm),5
0.721,-0.829,Vajk2,1
-0.768,,CG12105,1
0.9,-1.57,CCT6 (Chaperonin containing TCP1 subunit 6),1
-1.95,-1.63,Ogg1 (8-oxoguanine DNA glycosylase),1
0.467,0.0254,Ipk1 (Inositol phosphate kinase 1),1
0.79,0.034,Ipk1 (Inositol phosphate kinase 1),2
-0.503,-0.0393,Ipk1 (Inositol phosphate kinase 1),3
0.622,1.23,Unc50 (Unc50 RNA binding protein),1
-0.761,0.344,UbcE2M (NEDD8-conjugating enzyme UbcE2M),1
-1.15,-0.111,PhKgamma (Phosphorylase kinase gamma),1
-1.41,-0.0212,Kebab (Kinetochore and EB1 associated basic protein),1
1.06,0.171,Cyp9b1 (Cytochrome P450 9b1),1
0.653,7.59,Rm62,1
-0.268,0.214,Atg17 (Autophagy-related 17),1
0.0452,-0.93,CG34126,1
-0.0767,-1.08,CG34126,2
1.14,1.56,CG10347,1
0.143,0.685,CG3191,1
-0.653,-0.4,CG3251,1
0.564,0.846,SNF4Agamma (SNF4/AMP-activated protein kinase gamma subunit),1
-1.84,1.24,SNF4Agamma (SNF4/AMP-activated protein kinase gamma subunit),2
-1.62,-2.36,SNF4Agamma (SNF4/AMP-activated protein kinase gamma subunit),3
1.98,0.307,SNF4Agamma (SNF4/AMP-activated protein kinase gamma subunit),4
1.54,0.174,PAPLA1 (Phosphatidic Acid Phospholipase A1),1
-0.00702,-0.565,PAPLA1 (Phosphatidic Acid Phospholipase A1),2
6.21,0.263,CG6790,1
-1.05,1.48,CG7246,1
-0.865,1.83,CG10669,1
1.17,0.675,CG17078,1
2.91,2.34,Chrac-16 (Chromatin accessibility complex 16kD protein),1
-0.485,-1.57,CG12069,1
-0.488,0.0543,Cyt-b5-r (Cytochrome b5-related),1
0.441,1.07,peb (pebbled),1
-0.595,-0.0467,peb (pebbled),2
3.04,0.569,CG31760,1
-0.706,-1.96,jeb (jelly belly),1
0.0183,0.694,jeb (jelly belly),2
0.298,-0.723,pes (peste),1
-0.889,-2.35,CG31145,1
-0.0401,0.458,CG31145,2
-0.635,0.72,CG31145,3
-1.22,-1.18,dpr8 (defective proboscis extension response 8),1
2.28,3.31,dpr8 (defective proboscis extension response 8),2
0.555,0.553,dpr8 (defective proboscis extension response 8),3
-0.0445,0.0412,dpr8 (defective proboscis extension response 8),4
-0.682,-0.961,Cyp303a1 (Cytochrome P450 303a1),1
-0.593,-1.66,CG31827 + CG18478,1
0.399,-2.38,GILT3 (Gamma-interferon-inducible lysosomal thiol reductase 3),1
-4.87,-0.329,CG33272,1
0.321,-1.06,Ntan1 (N-terminal amidohydrolase 1),1
0.0493,0.73,mrt (martik),1
-0.297,-1.4,shop (shopper),1
1.37,0.391,GlyT (Glycine transporter),1
1.9,-4.19,CalpC (Calpain C),1
-0.664,0.657,CG18269,1
1.58,-0.155,trem (trade embargo),1
0.287,-0.0643,CG42502 + CG10570,1
-2.17,-0.681,"CIA30 (Complex I intermediate-associated protein, 30 kDa)",1
-0.0145,-1.27,capu (cappuccino),1
-0.687,1.06,capu (cappuccino),2
-0.00355,0.315,CG10053,1
1.57,-0.944,CG34281,1
-0.0647,-0.869,CG13679,1
3.82,-0.477,CG13679,2
2.09,-0.546,Chmp1 (Charged multivesicular body protein 1),1
-1.25,-1.2,PpV (Protein phosphatase V),1
1.42,1.91,PpV (Protein phosphatase V),2
0.00197,3.94,CG8997,1
0.379,,cGlr1 (cGAS-like receptor 1),1
-0.0751,3.76,IKKbeta (I-kappaB kinase beta),1
1.53,1.86,mor (moira),1
-1.2,-0.596,CG5645,1
4.07,0.0119,CG30392,1
-0.617,0.542,CG5504,1
-0.139,-0.788,sov (small ovary),1
-0.225,-0.335,CG2113,1
0.853,2.53,CG9173,1
0.643,-1.01,CG9903,1
0.633,-1.02,yin,1
-0.319,0.0388,yin,2
-0.93,0.712,CG13501,1
0.664,-0.636,msl-2 (male-specific lethal 2),1
0.0398,-1.03,Vha68-3 (Vacuolar H[+] ATPase 68kD subunit 3),1
0.702,1.99,CheB42c (Chemosensory protein B 42c),1
2.16,4.21,maca,1
-0.14,0.732,CG15536,1
0.162,1.31,CG15536,2
0.519,0.75,CG13998,1
1.21,4.45,"SdhC (Succinate dehydrogenase, subunit C)",1
0.307,-0.159,Z600,1
0.561,0.0212,Cdlc2 (Cytoplasmic dynein light chain 2),1
-0.582,0.0787,CG12766,1

In a second layout: entries from further up
Chmp1 (Charged multivesicular body protein 1): droplet/nuclear area B-score, replicate 1 = 2.09; droplet/nuclear area B-score, replicate 2 = -0.546
PpV (Protein phosphatase V) #1: droplet/nuclear area B-score, replicate 1 = -1.25; droplet/nuclear area B-score, replicate 2 = -1.2
PpV (Protein phosphatase V) #2: droplet/nuclear area B-score, replicate 1 = 1.42; droplet/nuclear area B-score, replicate 2 = 1.91
CG8997: droplet/nuclear area B-score, replicate 1 = 0.00197; droplet/nuclear area B-score, replicate 2 = 3.94
cGlr1 (cGAS-like receptor 1): droplet/nuclear area B-score, replicate 1 = 0.379
IKKbeta (I-kappaB kinase beta): droplet/nuclear area B-score, replicate 1 = -0.0751; droplet/nuclear area B-score, replicate 2 = 3.76
mor (moira): droplet/nuclear area B-score, replicate 1 = 1.53; droplet/nuclear area B-score, replicate 2 = 1.86
CG5645: droplet/nuclear area B-score, replicate 1 = -1.2; droplet/nuclear area B-score, replicate 2 = -0.596
